According to publication PMC3536758:

Assays:
[1] = target: T1, MBP-ComKBco (Bacillus coagulans DSM 1) (UniProt K4MVI2); experiment: EMSA; settings: 275 nM-2.2 uM protein, poly(dI-dC); EMSA: binding buffer (composition not given) with poly(dI-dC), premixed on ice, 20 min at 30 C; 6% polyacrylamide gel in 1x TBE, 90 V, 60 min; pH and salt not given; recombinant protein; protein details: N-terminal MBP; label: 33P 5' end; probe letters rebuilt from the primers and the genome
T1 sequence (looked up, limits assumed): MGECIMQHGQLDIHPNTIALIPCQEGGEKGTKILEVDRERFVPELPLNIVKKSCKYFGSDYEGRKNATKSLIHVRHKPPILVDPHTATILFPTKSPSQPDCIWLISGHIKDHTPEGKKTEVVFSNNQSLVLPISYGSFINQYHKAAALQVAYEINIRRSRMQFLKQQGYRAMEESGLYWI

[2] = target: T2, MBP-ComKBsu (Bacillus subtilis) (UniProt P40396); experiment: EMSA; settings: 125 nM-1 uM protein, poly(dI-dC); EMSA: binding buffer (composition not given) with poly(dI-dC), premixed on ice, 20 min at 30 C; 6% polyacrylamide gel in 1x TBE, 90 V, 60 min; pH and salt not given; recombinant protein; protein details: MBP; label: 33P 5' end; probe letters rebuilt from the primers and the genome
T2 sequence (looked up, limits assumed): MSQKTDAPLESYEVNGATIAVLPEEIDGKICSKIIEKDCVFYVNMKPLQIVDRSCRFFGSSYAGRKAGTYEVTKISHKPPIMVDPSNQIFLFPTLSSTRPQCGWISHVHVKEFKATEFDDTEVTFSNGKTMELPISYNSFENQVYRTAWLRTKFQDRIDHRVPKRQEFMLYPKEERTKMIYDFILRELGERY

Sequence	binding result [1]	binding result [2]
GGGGCCCTTTCCAGCTTGGACCTGTATAACGAGCCATGAAAGACTCCTCCTTTGTTTTTATTTTGTTGTAAAATAAAAACAGATATCATGGACACTTCTTCATGCGTATTTTGTTTTCATGTACCATCGCCCCAGCAGCAGAGGGTTACACGATACACCTTGCATTCAGGCAAGGAACAAAATACAAACACAAAGCCGTCCAATAAGGCTGCATTATTTTACACAACGTTGATTATATGTTTTCAGAGAAAAAAAGTCAACAACAAATGCAAATCGGGATGCCGTTGCAAATCGGGATGCCATGCCAAAAAAATTTTACATACCGGTTTTGCCGGGTTCATAACAGGACTTAAGATACAACACATACTGTATATCGGTCGAGCGGGCTGTACATTTATAGTACTTTTGCATTATAATGGTATTAATTTGACCGGTTTTTACATTTTTACGTCTCCCGTGCGGTTTTTTGTTTTAAAATTCTTCATTTTCAAGGTTCACACTTTTTAGTGCTTTTTTTCGCTTTTATACGGAAACAGGGTCAGGGTGATTAGGAAATGGAAAAAAAGAAAGAAAATCATTTAATCCTATATTATAAGTCCCGTTTACTGGATTGGTACCC (double strand) [rpsDBco promoter]	no binding	–
GGGCCCTTCTACCGACATAATCCATCACATACCACCTTTCTTTTGGGATATTCTCTCATTTCGACACGGCTTTCAAAATTCCTGCTGAAAGCAAAAATTTTTTCGCTATTTTTTTCTCTCAGCCGCAAAAAAGTGTGTGATTTTTGTCACAAATTTTGGCGTTGTTATCATTTATAATATAGATAGGATAAAAAATATAGAGGTGTTTAATATGGAACCAACATTAAAAGTGATCAACGCCCTTTCTGACCCGACCCGCTACTCGATTTACCAATTTGTACTGAAGAAACGGAGCGAAGTATCCGTCCAGGAAGGTACC (double strand) [comGABco promoter]	binds	binds

For at least one entry, the source does not settle the construct or the ends of the probe. For part of these data: No signal at the amounts used counts as a negative. Where a protein sequence is shown, tags need not be part of it. For part of these data: At least one verdict rests on a figure or table, not on a statement of the authors.
